# From the supplement of paper PMC8728848
# The list shows a part of the results.
# Legend:
# Experiment in all cases: glycan array binding signal (z-score within array); higher = stronger binding
# Settings in all cases: glycan notation: IUPAC condensed, linker removed
# [1] = target: Neu5Ac(a2-3)Gal(b1-3)GlcNAc(b1-6)GalNAc
# Outline: (§1)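 The binding signal is a Z-score computed within each array and averaged over linkers. Arrays of the same protein sequence at different concentrations or buffers were also averaged together. Data originate from 3228 arrays in the Consortium for Functional Glycomics database, kept only where the protein sequence was available.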
# [2] = target: Neu5Ac(a2-3)Gal(b1-3)GlcNAc6S
# Outline: as §1
# [3] = target: Neu5Ac(a2-3)Gal(b1-3)[Fuc(a1-4)]GlcNAc
# Outline: as §1
# [4] = target: Neu5Ac(a2-3)Gal(b1-3)[Fuc(a1-4)]GlcNAc(b1-3)Gal(b1-3)[Fuc(a1-4)]GlcNAc
# Outline: as §1
# [5] = target: Neu5Ac(a2-3)Gal(b1-3)[Fuc(a1-4)]GlcNAc(b1-3)Gal(b1-4)[Fuc(a1-3)]GlcNAc
# Outline: as §1
# [6] = target: Neu5Ac(a2-3)Gal(b1-3)[GlcNAc(b1-6)]GalNAc
# Outline: as §1
# [7] = target: Neu5Ac(a2-3)Gal(b1-3)[Neu5Ac(a2-6)]GalNAc
# Outline: as §1
# [8] = target: Neu5Ac(a2-3)Gal(b1-3)[Neu5Ac(a2-6)]GlcNAc(b1-3)[Fuc(a1-3)[Gal(b1-4)]GlcNAc(b1-6)]Gal(b1-4)Glc
# Outline: as §1
# [9] = target: Neu5Ac(a2-3)Gal(b1-3)]Neu5Ac(a2-3)Gal(b1-4)]GlcNAc
# Outline: as §1
# [10] = target: Neu5Ac(a2-3)Gal(b1-4)Glc
# Outline: as §1
# [11] = target: Neu5Ac(a2-3)Gal(b1-4)GlcNAc
# Outline: as §1
# [12] = target: Neu5Ac(a2-3)Gal(b1-4)GlcNAc(b1-2)Man
# Outline: as §1
# [13] = target: Neu5Ac(a2-3)Gal(b1-4)GlcNAc(b1-2)Man(a1-3)[GlcNAc(b1-4)][Neu5Ac(a2-3)Gal(b1-4)GlcNAc(b1-2)Man(a1-6)]Man(b1-4)GlcNAc(b1-4)GlcNAc
# Outline: as §1
# [14] = target: Neu5Ac(a2-3)Gal(b1-4)GlcNAc(b1-2)Man(a1-3)[Neu5Ac(a2-3)Gal(b1-4)GlcNAc(b1-2)Man(a1-6)]Man(b1-4)GlcNAc(b1-4)GlcNAc
# Outline: as §1
# [15] = target: Neu5Ac(a2-3)Gal(b1-4)GlcNAc(b1-2)Man(a1-3)[Neu5Ac(a2-3)Gal(b1-4)GlcNAc(b1-2)Man(a1-6)]Man(b1-4)GlcNAc(b1-4)[Fuc(a1-6)]GlcNAc
# Outline: as §1
# [16] = target: Neu5Ac(a2-3)Gal(b1-4)GlcNAc(b1-2)Man(a1-3)[Neu5Ac(a2-6)Gal(b1-4)GlcNAc(b1-2)Man(a1-6)]Man(b1-4)GlcNAc(b1-4)GlcNAc
# Outline: as §1
# [17] = target: Neu5Ac(a2-3)Gal(b1-4)GlcNAc(b1-2)[Neu5Ac(a2-3)Gal(b1-4)GlcNAc(b1-4)]Man(a1-3)[GlcNAc(b1-4)][Neu5Ac(a2-3)Gal(b1-4)GlcNAc(b1-2)[Neu5Ac(a2-3)Gal(b1-4)GlcNAc(b1-6)]Man(a1-6)]Man(b1-4)GlcNAc(b1-4)GlcNAc
# Outline: as §1
# [18] = target: Neu5Ac(a2-3)Gal(b1-4)GlcNAc(b1-2)[Neu5Ac(a2-3)Gal(b1-4)GlcNAc(b1-4)]Man(a1-3)[GlcNAc(b1-4)][Neu5Ac(a2-3)Gal(b1-4)GlcNAc(b1-4)Man(a1-6)]Man(b1-4)GlcNAc(b1-4)GlcNAc
# Outline: as §1
# [19] = target: Neu5Ac(a2-3)Gal(b1-4)GlcNAc(b1-2)[Neu5Ac(a2-3)Gal(b1-4)GlcNAc(b1-6)]Man(a1-6)[Neu5Ac(a2-3)Gal(b1-4)GlcNAc(b1-2)Man(a1-3)][GlcNAc(b1-4)]Man(b1-4)GlcNAc(b1-4)GlcNAc
# Outline: as §1
# [20] = target: Neu5Ac(a2-3)Gal(b1-4)GlcNAc(b1-3)Gal
# Outline: as §1
# [21] = target: Neu5Ac(a2-3)Gal(b1-4)GlcNAc(b1-3)Gal(b1-3)GlcNAc
# Outline: as §1
# [22] = target: Neu5Ac(a2-3)Gal(b1-4)GlcNAc(b1-3)Gal(b1-4)GlcNAc
# Outline: as §1
# [23] = target: Neu5Ac(a2-3)Gal(b1-4)GlcNAc(b1-3)Gal(b1-4)GlcNAc(b1-2)Man(a1-3)[Neu5Ac(a2-3)Gal(b1-4)GlcNAc(b1-3)Gal(b1-4)GlcNAc(b1-2)Man(a1-6)]Man(b1-4)GlcNAc(b1-4)GlcNAc
# Outline: as §1
# [24] = target: Neu5Ac(a2-3)Gal(b1-4)GlcNAc(b1-3)Gal(b1-4)GlcNAc(b1-3)Gal(b1-4)GlcNAc
# Outline: as §1
# [25] = target: Neu5Ac(a2-3)Gal(b1-4)GlcNAc(b1-3)Gal(b1-4)GlcNAc(b1-3)Gal(b1-4)GlcNAc(b1-2)Man(a1-3)[Neu5Ac(a2-3)Gal(b1-4)GlcNAc(b1-3)Gal(b1-4)GlcNAc(b1-3)Gal(b1-4)GlcNAc(b1-2)Man(a1-6)]GalNAc
# Outline: as §1
# [26] = target: Neu5Ac(a2-3)Gal(b1-4)GlcNAc(b1-3)Gal(b1-4)GlcNAc(b1-3)GalNAc
# Outline: as §1
# [27] = target: Neu5Ac(a2-3)Gal(b1-4)GlcNAc(b1-3)Gal(b1-4)GlcNAc(b1-3)[Neu5Ac(a2-3)Gal(b1-4)GlcNAc(b1-3)Gal(b1-4)GlcNAc(b1-6)]GalNAc
# Outline: as §1
# [28] = target: Neu5Ac(a2-3)Gal(b1-4)GlcNAc(b1-3)Gal(b1-4)GlcNAc(b1-6)[Gal(b1-3)]GalNAc
# Outline: as §1
# [29] = target: Neu5Ac(a2-3)Gal(b1-4)GlcNAc(b1-3)Gal(b1-4)[Fuc(a1-3)]GlcNAc
# Outline: as §1
# [30] = target: Neu5Ac(a2-3)Gal(b1-4)GlcNAc(b1-3)GalNAc
# Outline: as §1
# [31] = target: Neu5Ac(a2-3)Gal(b1-4)GlcNAc(b1-3)[Neu5Ac(a2-3)Gal(b1-4)GlcNAc(b1-6)]GalNAc
# Outline: as §1
# [32] = target: Neu5Ac(a2-3)Gal(b1-4)GlcNAc(b1-6)GalNAc
# Outline: as §1
# [33] = target: Neu5Ac(a2-3)Gal(b1-4)GlcNAc(b1-6)[Gal(b1-3)]GalNAc
# Outline: as §1
# [34] = target: Neu5Ac(a2-3)Gal(b1-4)GlcNAc(b1-6)[Neu5Ac(a2-3)Gal(b1-3)]GalNAc
# Outline: as §1
# [35] = target: Neu5Ac(a2-3)Gal(b1-4)GlcNAc6S
# Outline: as §1
# [36] = target: Neu5Ac(a2-3)Gal(b1-4)[Fuc(a1-3)]GlcNAc
# Outline: as §1
# [37] = target: Neu5Ac(a2-3)Gal(b1-4)[Fuc(a1-3)]GlcNAc(b1-2)Man
# Outline: as §1
# [38] = target: Neu5Ac(a2-3)Gal(b1-4)[Fuc(a1-3)]GlcNAc(b1-3)Gal
# Outline: as §1
# [39] = target: Neu5Ac(a2-3)Gal(b1-4)[Fuc(a1-3)]GlcNAc(b1-3)Gal(b1-4)GlcNAc
# Outline: as §1
# [40] = target: Neu5Ac(a2-3)Gal(b1-4)[Fuc(a1-3)]GlcNAc(b1-3)Gal(b1-4)[Fuc(a1-3)]GlcNAc(b1-3)Gal(b1-4)[Fuc(a1-3)]GlcNAc
# Outline: as §1
# [41] = target: Neu5Ac(a2-3)Gal(b1-4)[Fuc(a1-3)]GlcNAc(b1-3)GalNAc
# Outline: as §1
# [42] = target: Neu5Ac(a2-3)Gal(b1-4)[Fuc(a1-3)]GlcNAc(b1-6)[Gal(b1-3)]GalNAc
# Outline: as §1
# [43] = target: Neu5Ac(a2-3)Gal(b1-4)[Fuc(a1-3)]GlcNAc(b1-6)[Neu5Ac(a2-3)Gal(b1-3)]GalNAc
# Outline: as §1
# [44] = target: Neu5Ac(a2-3)Gal(b1-4)[Fuc(a1-3)]GlcNAc6S
# Outline: as §1
# [45] = target: Neu5Ac(a2-3)Gal6S(b1-4)GlcNAc
# Outline: as §1
binder,measurement,setting,value
"LysMD3 (Homo sapiens), Q7Z3D4 (protein) MAGRHQNRSFPLPGVQSSGQVHAFGNCSDSDILEEDAEVYELRSRGKEKVRRSTSRDRLDDIIVLTKDIQEGDTLNAIALQYCCTVADIKRVNNLISDQDFFALRSIKIPVKKFSSLTETLCPPKGRQTSRHSSVQYSSEQQEILPANDSLAYSDSAGSFLKEVDRDIEQIVKCTDNKRENLNEVVSALTAQQMRFEPDNKNTQRKDPYYGADWGIG",glycan array binding signal (z-score),[1],-0.701
same,glycan array binding signal (z-score),[2],-0.562
same,glycan array binding signal (z-score),[3],-0.689
same,glycan array binding signal (z-score),[4],-0.51
same,glycan array binding signal (z-score),[5],0.346
same,glycan array binding signal (z-score),[6],-0.933
same,glycan array binding signal (z-score),[7],0.106
same,glycan array binding signal (z-score),[8],-0.473
same,glycan array binding signal (z-score),[9],0.837
same,glycan array binding signal (z-score),[10],-0.644
same,glycan array binding signal (z-score),[11],-0.259
same,glycan array binding signal (z-score),[12],-0.604
same,glycan array binding signal (z-score),[13],-0.07
same,glycan array binding signal (z-score),[14],0.459
same,glycan array binding signal (z-score),[15],-0.475
same,glycan array binding signal (z-score),[16],0.582
same,glycan array binding signal (z-score),[17],-0.117
same,glycan array binding signal (z-score),[18],-1.33
same,glycan array binding signal (z-score),[19],0.359
same,glycan array binding signal (z-score),[20],-0.198
same,glycan array binding signal (z-score),[21],-0.589
same,glycan array binding signal (z-score),[22],0.515
same,glycan array binding signal (z-score),[23],-0.994
same,glycan array binding signal (z-score),[24],0.245
same,glycan array binding signal (z-score),[25],-0.65
same,glycan array binding signal (z-score),[26],-0.97
same,glycan array binding signal (z-score),[27],-0.222
same,glycan array binding signal (z-score),[28],-0.924
same,glycan array binding signal (z-score),[29],-0.062
same,glycan array binding signal (z-score),[30],-1.16
same,glycan array binding signal (z-score),[31],-0.148
same,glycan array binding signal (z-score),[32],-0.53
same,glycan array binding signal (z-score),[33],-0.655
same,glycan array binding signal (z-score),[34],-0.226
same,glycan array binding signal (z-score),[35],0.421
same,glycan array binding signal (z-score),[36],-0.005
same,glycan array binding signal (z-score),[37],0.036
same,glycan array binding signal (z-score),[38],-0.019
same,glycan array binding signal (z-score),[39],0.356
same,glycan array binding signal (z-score),[40],-0.593
same,glycan array binding signal (z-score),[41],-0.384
same,glycan array binding signal (z-score),[42],0.167
same,glycan array binding signal (z-score),[43],0.109
same,glycan array binding signal (z-score),[44],-0.122
same,glycan array binding signal (z-score),[45],-0.773

# A stretch of the results above:
binder,measurement,setting,value
"LysMD3 (Homo sapiens), Q7Z3D4 (protein) MAGRHQNRSFPLPGVQSSGQVHAFGNCSDSDILEEDAEVYELRSRGKEKVRRSTSRDRLDDIIVLTKDIQEGDTLNAIALQYCCTVADIKRVNNLISDQDFFALRSIKIPVKKFSSLTETLCPPKGRQTSRHSSVQYSSEQQEILPANDSLAYSDSAGSFLKEVDRDIEQIVKCTDNKRENLNEVVSALTAQQMRFEPDNKNTQRKDPYYGADWGIG",glycan array binding signal (z-score),[18],-1.33
same,glycan array binding signal (z-score),[19],0.359
same,glycan array binding signal (z-score),[20],-0.198
